Laboratory results as given in paper PMC10454571.
These are yes or no findings as the source states them, for the method shown. In cells and extracts the contact can be indirect. Here binding means that the protein was enriched with, or labelled near, the bait; the list need not be complete.

Key:
[1] = target: PfGEXP15-GFP-DDD-HA (Plasmodium falciparum 3D7) (UniProt Q8IJ89); assay: affinity purification with mass spectrometry; GFP-Trap magnetic agarose on soluble extracts of trophozoites and schizonts of the PfGEXP15-GFP-DDD-HA line, overnight at 4 °C, parental strain as control, three biological replicates; 20 mM Tris, 150 mM NaCl, 0.5% Triton X-100, pH 7.5 washes
[2] = target: His6 PfGEXP15 GYF, shorter fragment (2053-2347 bp) (Plasmodium falciparum) (UniProt Q8IJ89); assay: affinity purification with mass spectrometry; His6 PfGEXP15 fragments on nickel agarose beads mixed overnight at 4 °C with soluble extracts of wild-type trophozoites/schizonts in 20 mM Tris, 150 mM NaCl, 0.5% Triton X-100, pH 7.5; tetR bacterial protein as negative control; three replicates; only the target purified
[3] = target: His6 PfGEXP15 UD, shorter fragment (853-1266 bp) (Plasmodium falciparum) (UniProt Q8IJ89); assay: as above

| Binder | binding [1] | binding [2] | binding [3] |
| --- | --- | --- | --- |
| 40S ribosomal protein S15 (protein, UniProt Q8IDB0 1-151) MGRMYGKGKGISSSTLPYKRKQPSWLKQKPSEIEDAIIKLAKKGQTPSQIGATLRDNYGIPQVKSVTGNKILRILRAQGIATTIPEDLYFLIKKAVSMRKHLEKNKKDKDCKFRLILTESKIHRISRYYKRKKLLPSNWKYQSSTASALIA | binds | binds |  |
| 60S ribosomal protein L26 (protein, UniProt O77364 1-126) MKFNKQKSSSRRKMRKAHFTAPAGLRRKIMSSKLSKELRLKYKTRSLPVRKDDEVLICRGHNHGREGKVVKINRKRYKIYVERVTREKVNGESTFIGIHPSNVVLTKLKVDKNRKKILDRKAAKEN | binds | binds |  |

More lines, now with the values ahead:

| binding [1] | binding [2] | binding [3] | Binder |
| --- | --- | --- | --- |
| binds | binds |  | 60S ribosomal protein L32 (protein, UniProt Q8I3B0 1-131) MAVKKVGKIIKKRTKKFTRFQSNRFMRVKPAWRKPRGIDCRVRRRYKGTNLMPSIGYGSNKKTKFLLPNNKYKYVVKNVKEMEPLIMNHTKYCVQIAHNVSSKKRKQIIERAKQMNVSVINAKARLQKTEE |
|  |  | binds | exportin-7 (protein, UniProt C0H530 1-1198) MSESELQQLQVLCEAMYCGNKEEQNQAHTILLPLVNNVMNVSKLKNILGSTNHVHTLIFTTSGLLQLITNEWNKIDQKEKDELKEFVISYLYNKGVDLLNLSTNILGNFVRLYVRIVKLSWLENTNYSLITKQVEYFLNSVTSHWIIGLYIYAALIEDMHPQCGVNSAKSRRCAISFRDYVLKDIFKVGIETLEEFVKGSIRIELRIEENRLLIKVLELIYNSLSFDFMGTMINDESSDENISLMIPQSWDIFNEKNIPKLFFDMYELCMSEEDDIRNCCGKYCLRSLILLGSLRKTFFTNEKQKVHYMNEFLGGINKIIEKKIGLNDEDCFHEMCRLIGKIDTSVRLQELSTYSNFLSWCHNIYLFTMDGMKNWKYLCNSKHYLLGIWSNMLNIIPPKVIKEINNRTDEKDLLKDVLSNKNIFAKKNSISDNFNSHDIDNKYLIICDYIYDITIIFINTRLELANYICEKGDNCEIENPLYNDVLRSEQLELISNLSKLQYNFIGAKLLSIFYELKSNHENNLISKTVFIEQTTWLVFIIASIISSSAISNMKNSSFNNFKINSELCFLVFSLMDQTNKSPEVFEYLEFAYLNCLELFKKVYISGKKNNQFLKEMRSVALKIIPDGGSNMYPNNNNNNNNNNNNNNNSNNIINNNNSSNSCGINNTLGFTTGSTNNPNTLLNNNMNNFATPSLITNENDDDNNDPLIDLIISKILFNLNNRVEYEQIIKRSLDLFHDLVSGMNIVCLEDKTPKLIVFARLLLKNEKILNLLHNRSTKFLEISKYYKYRTNYYLILTKLLFMEQNLVSSTFEKYIAPINNILECIKREININGKDIILKNNEIKLTFIGALRDLRGICMACNNVETYNMFFNFFINSHPLEDNQMNILTSLVDVIWNSYDICIPFLKFMCEFVYNKSQRITFPKSSPNGILLFKVVSNILIIISNNLLQKDKFIDIYKEKYKIISLLLNMFNNCLNGDFVNFAIFDLYNDDILNNSLNLALNMCLVIPTNDLLSYIKHLKPYFSFLDLVTKNFFQRILNLEFQLIADIIHNVKEGLCSFDYTVSMTCCSILDNIVTYIFTNRKNSTEQGQIIKNFLESQPQALKEVLNLMFHLILGGDFGSTWSMSQPLLGLILLDAQGYFKIQEQLISQQSEEKKQKLRHSFCKLMDHIESNLAPNNRENFTRNLYTFAQEIRNILI |
